Results are given in words; binding and its absence hold for the method and conditions named. In cells and extracts the contact can be indirect. Some entries that bind do so weakly or less than the wild type. For some assays here: Sequences can lack the tags named with a protein.
Assays:
[1] = molecular target: Rts1 (Saccharomyces cerevisiae) (UniProt P38903); test: anti-FLAG co-IP, LC-MS/MS
[2] = molecular target: T1, Tap42 (Saccharomyces cerevisiae) (UniProt Q04372); test: anti-FLAG co-IP, LC-MS/MS
T1 sequence (looked up): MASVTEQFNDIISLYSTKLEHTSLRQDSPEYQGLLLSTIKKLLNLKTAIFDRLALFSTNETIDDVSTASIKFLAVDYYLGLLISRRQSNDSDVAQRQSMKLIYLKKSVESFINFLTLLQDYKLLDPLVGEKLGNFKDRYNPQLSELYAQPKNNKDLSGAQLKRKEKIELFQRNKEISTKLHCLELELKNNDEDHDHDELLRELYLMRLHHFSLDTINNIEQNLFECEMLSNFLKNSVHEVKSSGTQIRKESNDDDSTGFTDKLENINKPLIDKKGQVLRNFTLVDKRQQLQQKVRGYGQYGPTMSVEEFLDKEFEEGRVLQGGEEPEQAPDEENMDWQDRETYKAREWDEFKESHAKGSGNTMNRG

The chains behind the UniProt entries cited, without tags or fusion partners.
UniProt P38903: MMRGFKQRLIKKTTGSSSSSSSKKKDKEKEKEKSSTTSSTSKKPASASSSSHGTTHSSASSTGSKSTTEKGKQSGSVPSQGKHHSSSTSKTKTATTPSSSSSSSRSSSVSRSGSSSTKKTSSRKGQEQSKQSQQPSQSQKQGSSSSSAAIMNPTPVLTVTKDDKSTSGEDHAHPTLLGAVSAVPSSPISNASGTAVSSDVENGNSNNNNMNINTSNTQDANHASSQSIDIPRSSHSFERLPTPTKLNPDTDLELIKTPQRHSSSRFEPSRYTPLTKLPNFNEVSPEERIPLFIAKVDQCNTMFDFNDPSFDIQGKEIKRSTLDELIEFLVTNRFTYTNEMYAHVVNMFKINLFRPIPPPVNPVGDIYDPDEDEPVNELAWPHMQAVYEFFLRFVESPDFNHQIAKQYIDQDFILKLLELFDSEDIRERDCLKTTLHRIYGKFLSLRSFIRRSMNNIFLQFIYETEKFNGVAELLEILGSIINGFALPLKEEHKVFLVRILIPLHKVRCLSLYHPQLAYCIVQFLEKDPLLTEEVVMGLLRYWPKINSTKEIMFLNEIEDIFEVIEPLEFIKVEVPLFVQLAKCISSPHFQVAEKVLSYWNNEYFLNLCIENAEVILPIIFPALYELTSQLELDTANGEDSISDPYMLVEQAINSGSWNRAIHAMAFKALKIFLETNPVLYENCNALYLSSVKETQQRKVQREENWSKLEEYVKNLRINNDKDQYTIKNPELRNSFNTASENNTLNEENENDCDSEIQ
UniProt P23594: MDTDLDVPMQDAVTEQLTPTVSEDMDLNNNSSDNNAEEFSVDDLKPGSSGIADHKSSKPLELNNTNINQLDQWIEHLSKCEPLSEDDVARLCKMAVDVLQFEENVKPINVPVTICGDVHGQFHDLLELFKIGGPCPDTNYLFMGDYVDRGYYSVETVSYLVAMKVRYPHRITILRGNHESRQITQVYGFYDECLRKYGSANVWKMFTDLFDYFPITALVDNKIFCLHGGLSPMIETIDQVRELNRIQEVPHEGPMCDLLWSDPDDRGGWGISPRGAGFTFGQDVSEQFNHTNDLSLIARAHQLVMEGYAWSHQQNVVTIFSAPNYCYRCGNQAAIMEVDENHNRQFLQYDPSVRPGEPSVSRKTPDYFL
UniProt P23595: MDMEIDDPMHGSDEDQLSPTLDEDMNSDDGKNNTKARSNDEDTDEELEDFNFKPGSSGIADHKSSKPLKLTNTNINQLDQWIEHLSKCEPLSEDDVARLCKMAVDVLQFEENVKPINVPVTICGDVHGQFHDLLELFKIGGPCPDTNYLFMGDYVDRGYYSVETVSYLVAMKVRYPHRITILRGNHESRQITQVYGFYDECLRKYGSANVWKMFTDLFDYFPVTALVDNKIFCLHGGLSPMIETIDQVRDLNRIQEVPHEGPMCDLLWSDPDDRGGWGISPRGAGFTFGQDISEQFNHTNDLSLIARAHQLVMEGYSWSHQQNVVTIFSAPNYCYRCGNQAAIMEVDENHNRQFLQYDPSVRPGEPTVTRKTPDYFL

[3] = molecular target: T2, Tpd3 (Saccharomyces cerevisiae) (UniProt P31383); test: anti-FLAG co-IP, LC-MS/MS
T2 sequence (looked up): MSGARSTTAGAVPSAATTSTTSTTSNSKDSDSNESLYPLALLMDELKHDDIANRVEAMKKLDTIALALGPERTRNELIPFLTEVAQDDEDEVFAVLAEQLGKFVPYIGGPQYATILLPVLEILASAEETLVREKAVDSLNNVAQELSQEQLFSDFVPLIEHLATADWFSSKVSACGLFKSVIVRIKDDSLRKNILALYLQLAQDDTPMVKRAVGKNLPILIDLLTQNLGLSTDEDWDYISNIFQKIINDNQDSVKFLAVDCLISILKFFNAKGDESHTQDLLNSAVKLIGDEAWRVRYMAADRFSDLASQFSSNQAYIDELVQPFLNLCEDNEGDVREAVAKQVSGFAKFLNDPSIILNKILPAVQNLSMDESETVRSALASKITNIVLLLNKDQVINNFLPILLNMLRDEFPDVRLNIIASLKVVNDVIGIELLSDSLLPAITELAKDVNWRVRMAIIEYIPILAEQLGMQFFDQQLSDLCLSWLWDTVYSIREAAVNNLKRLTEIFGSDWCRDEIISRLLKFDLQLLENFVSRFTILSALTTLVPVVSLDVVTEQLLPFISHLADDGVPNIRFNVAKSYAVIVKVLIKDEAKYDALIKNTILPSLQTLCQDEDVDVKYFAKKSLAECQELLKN

[4] = molecular target: T3, Ygr161c (Saccharomyces cerevisiae) (UniProt P53289); test: anti-FLAG co-IP, LC-MS/MS
T3 sequence (looked up): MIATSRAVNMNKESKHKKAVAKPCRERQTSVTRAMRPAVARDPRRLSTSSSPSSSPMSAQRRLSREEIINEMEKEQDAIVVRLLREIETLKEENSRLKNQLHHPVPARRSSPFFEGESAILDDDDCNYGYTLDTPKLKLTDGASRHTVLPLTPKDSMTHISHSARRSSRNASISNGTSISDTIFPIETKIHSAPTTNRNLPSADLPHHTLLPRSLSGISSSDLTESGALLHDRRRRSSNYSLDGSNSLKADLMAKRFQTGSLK

[5] = molecular target: Rts1 (Saccharomyces cerevisiae) (UniProt P38903); test: anti-FLAG co-IP, LC-MS/MS; pair by Table 2
[6] = molecular target: T1, Tap42 (Saccharomyces cerevisiae); test: anti-FLAG co-IP, LC-MS/MS; pair by Table 2
[7] = molecular target: T2, Tpd3 (Saccharomyces cerevisiae); test: anti-FLAG co-IP, LC-MS/MS; pair by Table 2
[8] = molecular target: T4, Cdc55 (Saccharomyces cerevisiae) (UniProt Q00362); test: anti-FLAG co-IP, LC-MS/MS; pair by Table 2 (bait Cdc55)
T4 sequence (looked up): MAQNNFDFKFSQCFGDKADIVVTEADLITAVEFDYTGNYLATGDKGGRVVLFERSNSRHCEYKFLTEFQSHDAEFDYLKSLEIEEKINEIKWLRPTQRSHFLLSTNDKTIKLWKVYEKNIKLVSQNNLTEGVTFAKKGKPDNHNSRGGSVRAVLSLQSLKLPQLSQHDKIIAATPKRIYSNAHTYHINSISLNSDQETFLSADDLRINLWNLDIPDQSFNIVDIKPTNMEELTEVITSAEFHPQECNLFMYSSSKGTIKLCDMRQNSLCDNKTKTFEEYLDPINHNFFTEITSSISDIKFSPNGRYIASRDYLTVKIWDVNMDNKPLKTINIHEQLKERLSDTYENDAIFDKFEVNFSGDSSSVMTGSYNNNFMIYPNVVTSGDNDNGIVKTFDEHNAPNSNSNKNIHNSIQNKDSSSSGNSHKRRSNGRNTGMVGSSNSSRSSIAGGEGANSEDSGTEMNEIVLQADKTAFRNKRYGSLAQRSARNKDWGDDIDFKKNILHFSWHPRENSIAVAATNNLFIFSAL

[9] = molecular target: T4, Cdc55 (Saccharomyces cerevisiae); test: anti-FLAG co-IP, LC-MS/MS
[10] = molecular target: T4, Cdc55 (Saccharomyces cerevisiae); test: anti-FLAG co-IP, LC-MS/MS; pair by Table 2

Row | binding [1] | binding [2] | binding [3] | binding [4] | binding [5] | binding [6] | binding [7] | binding [8] | binding [9] | binding [10] | Substance
1 | binds | binds | binds | binds | binds | binds | binds | binds | – | – | Pph21 (from UniProt P23594 1-369)
2 | binds | binds | binds | binds | binds | binds | binds | – | binds | binds | Pph22 (from UniProt P23595 1-377)

From patent US20030162221A1
